# Among all 330,000 compounds or so, about 100 (0.03%) were called active. Inconclusive means that the source gave no clear call. Such entries were picked first, then a sample of the others. Calls come from the whole dose curve; as a rule, active = well fitted inhibition curve with a large enough effect; inconclusive = small, poorly fitted or top-dose-only effect; inactive = flat fitted curve, though single readings scatter. Potencies of inconclusive entries are doubtful fits and often do not repeat.
# Tested on: Chaperonin Mm-Cpn (Methanococcus maripaludis)
# Assay: Inhibitors of TCP-1 ring complex (TRiC) of Methanococcus maripaludis (MmCpn): qHTS; note: nearly all actives have a fitted effect of over 80% in size;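 for Potency: enzyme at 25 nM with ATP substrate at 10 µM during the reaction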
# Settings: purified Mm-Cpn ATPase, ADP Transcreener TR-FRET
# Summary of the method: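 Purified archaeal Mm-CPN (25nM final) preincubated 10 min at 37degC with compound, then 10uM ATP for 30 min at 37degC; ADP measured by HTRF Transcreener TR-FRET; buffer 30 mM TRIS pH 7.4, 100mM KCl, 5mM MgCl2, 1mM DTT.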
# Potency is the fitted concentration of half-maximal effect.
row,Compound,Potency
1,Cc1c(C#N)c2ncn(CCCN(C)C)c(=O)c2n1-c1ccccc1,inactive
2,C=CCOc1ccc(/C=N/O)cc1Cl,"inconclusive: 100 µM [inhibitor, single point]"
3,Nc1cc(=O)[nH]c(SCC(=O)c2ccc(F)cc2)n1,"inconclusive: 20 µM [inhibitor, single point]"
4,CCOC(=O)c1cc2sc(C)cc2n1CC(=O)Nc1cccc(C)c1C,"inconclusive: 35.5 µM [inhibitor, single point]"
5,COc1cc(Cl)ccc1NC(=O)COc1ccccc1C(=O)N1CCN(c2ccc(O)cc2)CC1,inactive
6,Cc1ccc(C)c(C(C)NC(=O)C2CCCC2)c1 (stereo not given),"inconclusive: 8.91 µM [inhibitor, single point]"
7,O=C(NC1CCSC1=O)c1ccccc1 (stereo not given),"inconclusive: 112 µM [inhibitor, single point]"
8,Cc1c(NC(=O)c2ccc(S(=O)(=O)N3CCOCC3)cc2)cccc1[N+](=O)[O-],"inconclusive: 56.2 µM [inhibitor, single point]"
9,Nc1ccc(-n2nncc2-c2ccc(Cl)cc2)cc1,inactive
10,N#Cc1ccsc1NC(=O)CN1CCN(c2ccccc2)CC1,inactive
11,Cc1ccc(N(O)C(=O)NCCCCNC(=O)N(O)c2ccc(C)cc2)cc1,inactive
12,COc1ccc(C)cc1S(=O)(=O)N1CCC(C(=O)NCCC2=CCCCC2)CC1,inactive
13,O=C(O)CSc1cc(NS(=O)(=O)c2ccc(Br)cc2)c2ccccc2c1O,"inconclusive: 100 µM [inhibitor, single point]"
14,O=C(c1ccccc1)c1ccc2nc(-c3ccc(NC(=O)c4ccccc4F)cc3)[nH]c2c1,"inconclusive: 100 µM [inhibitor, single point]"
15,COC(=O)c1cccc(Nc2cc(C)nc(-c3ccccc3O)n2)c1,"inconclusive: 100 µM [inhibitor, single point]"
16,O=C(NCc1ccccn1)Nc1cc(Cl)ccc1Cl,"inconclusive: 100 µM [inhibitor, single point]"
17,CCCc1cc(=O)[nH]c(SCCOC(=O)c2ccccc2)n1,"inconclusive: 22.4 µM [inhibitor, single point]"
18,CCN(CC)CCN1C(=O)C(=O)/C(=C(/O)c2ccc(C)cc2)C1c1cccnc1 (stereo not given),"inconclusive: 70.8 µM [inhibitor, single point]"
19,O=C1[C@@H]2C(Cc3ccc(O)cc3)NC3(C(=O)Nc4ccc(F)cc43)[C@@H]2C(=O)N1c1ccc(F)cc1 (stereo not given in full),"inconclusive: 20 µM [inhibitor, single point]"
20,O=C(Nc1cccnc1)c1sc(Nc2ccccc2)nc1-c1ccccc1,"inconclusive: 100 µM [inhibitor, partial curve]"
21,O=C(CCC(=O)OCC(F)(F)C(F)F)NCc1ccccc1,"inconclusive: 89.1 µM [inhibitor, single point]"
22,O=C(Nc1cccc(Cl)c1N1CCOCC1)c1ccc([N+](=O)[O-])o1,inactive
23,CCC1(C)Cc2c(sc3c2c(=O)n(C)c2nnc(SCc4ccc5c(c4)OCO5)n32)CO1 (stereo not given),"inconclusive: 112 µM [inhibitor, single point]"

row,Compound,Potency
1,O=C(CNC(=O)COc1ccccc1)NCc1cccnc1,inactive
2,C=CCN1C(=O)c2ccccc2Sc2ccc(C(=O)NCC(OC)OC)cc21,"inconclusive: 25.1 µM [inhibitor, single point]"
3,O=C(c1cc2c(s1)-c1ccccc1OC2)N1CCN(c2ccccc2)CC1,"inconclusive: 100 µM [inhibitor, single point]"
4,O=C(c1ccc2nc(N3CCOCC3)sc2c1)N1CCC(Cc2ccccc2)CC1,inactive
5,O=C(CCC1CCCNC1)c1ccccc1 (stereo not given),"inconclusive: 20 µM [inhibitor, single point]"
6,C(=N\n1cnnc1)/c1ccc(OCc2ccccc2)cc1,inactive
7,CCc1ccccc1NC(=O)c1cc(-c2ccco2)on1,"inconclusive: 100 µM [inhibitor, single point]"
8,COc1ccccc1NS(=O)(=O)c1cc(NC(=O)C(C)NC(N)=O)ccc1N1CCCC1 (stereo not given),inactive
9,Cc1ccc(C(=O)c2cnc3cc4c(cc3c2S(=O)(=O)c2ccccc2)OCCO4)cc1,"inconclusive: 112 µM [inhibitor, partial curve, poor fit]"
10,COc1ccc(CN(C)C(C)C(=O)Nc2ccc([N+](=O)[O-])cc2Cl)cc1OC (stereo not given),inactive
11,COc1ccc(CNC(=O)CSc2nnc(NC(=O)c3ccccc3F)s2)cc1,"inconclusive: 100 µM [inhibitor, single point]"
12,Cc1ccc(-c2nc(CCN3C(=O)c4ccccc4C3=O)cs2)cc1,"inconclusive: 22.4 µM [inhibitor, single point]"
13,O=C(Nc1cccc(NC(=O)c2ccc(-c3cccc(Br)c3)o2)c1)c1ccco1,"inconclusive: 56.2 µM [inhibitor, partial curve, poor fit]"
14,Cc1cc(C)c(NC(=O)CN(C)C(=O)CNC(=O)c2cccs2)c(C)c1,"inconclusive: 100 µM [inhibitor, single point]"
15,COc1ccc(/C=N/NC(=O)COc2ccccc2-c2ccccc2)cc1,"inconclusive: 79.4 µM [inhibitor, single point]"
16,CCc1ccc2nc(NC(=O)C3CSC4(C)CCC(=O)N34)sc2c1 (stereo not given),inactive
17,CCC(CO)NS(=O)(=O)c1cc(-c2nn(C)c(=O)c3ccccc23)ccc1C (stereo not given),"inconclusive: 20 µM [inhibitor, partial curve, poor fit]"
18,COc1ccc(C(C(=O)NC(C)(C)C)N(C(=O)CNC(=O)c2cccs2)c2cccnc2)cc1OC (stereo not given),"inconclusive: 89.1 µM [inhibitor, single point]"
19,COc1cccc(C2CNC3(CCCC(C)C3)c3[nH]c4ccccc4c32)c1OC (stereo not given),inactive
20,CC(/C=N/NC(=O)c1cccnc1)=C\c1ccccc1,"inconclusive: 15.8 µM [inhibitor, partial curve, poor fit]"
21,CCCCN(C)C(=O)C1CCN(C/C(C)=C/c2ccccc2)CC1,"inconclusive: 6.31 µM [inhibitor, single point]"
22,COC(=O)c1[nH]c2ccc(C)cc2c1NC(=O)NC1CCCCC1,inactive

# By substructure: those above with an aryl methoxy group
row,Compound,Potency
5,COc1cc(Cl)ccc1NC(=O)COc1ccccc1C(=O)N1CCN(c2ccc(O)cc2)CC1,inactive
12,COc1ccc(C)cc1S(=O)(=O)N1CCC(C(=O)NCCC2=CCCCC2)CC1,inactive
8,COc1ccccc1NS(=O)(=O)c1cc(NC(=O)C(C)NC(N)=O)ccc1N1CCCC1 (stereo not given),inactive
10,COc1ccc(CN(C)C(C)C(=O)Nc2ccc([N+](=O)[O-])cc2Cl)cc1OC (stereo not given),inactive
11,COc1ccc(CNC(=O)CSc2nnc(NC(=O)c3ccccc3F)s2)cc1,"inconclusive: 100 µM [inhibitor, single point]"
15,COc1ccc(/C=N/NC(=O)COc2ccccc2-c2ccccc2)cc1,"inconclusive: 79.4 µM [inhibitor, single point]"
18,COc1ccc(C(C(=O)NC(C)(C)C)N(C(=O)CNC(=O)c2cccs2)c2cccnc2)cc1OC (stereo not given),"inconclusive: 89.1 µM [inhibitor, single point]"
19,COc1cccc(C2CNC3(CCCC(C)C3)c3[nH]c4ccccc4c32)c1OC (stereo not given),inactive
